Test results from patent US20020164640A1.
Results are given in words; binding and its absence hold for the method and conditions named. Binding seen in cells or lysates may run through a third protein. Some binding calls cover weakened binding; strength is not graded here. For some of these results: Tags and fused reporters may be left off the sequences shown.

Amino acid sequences for entries named in this document (tags omitted). A change or cut given only in a name is not applied to a line headed by its entry.
UniProt P51617: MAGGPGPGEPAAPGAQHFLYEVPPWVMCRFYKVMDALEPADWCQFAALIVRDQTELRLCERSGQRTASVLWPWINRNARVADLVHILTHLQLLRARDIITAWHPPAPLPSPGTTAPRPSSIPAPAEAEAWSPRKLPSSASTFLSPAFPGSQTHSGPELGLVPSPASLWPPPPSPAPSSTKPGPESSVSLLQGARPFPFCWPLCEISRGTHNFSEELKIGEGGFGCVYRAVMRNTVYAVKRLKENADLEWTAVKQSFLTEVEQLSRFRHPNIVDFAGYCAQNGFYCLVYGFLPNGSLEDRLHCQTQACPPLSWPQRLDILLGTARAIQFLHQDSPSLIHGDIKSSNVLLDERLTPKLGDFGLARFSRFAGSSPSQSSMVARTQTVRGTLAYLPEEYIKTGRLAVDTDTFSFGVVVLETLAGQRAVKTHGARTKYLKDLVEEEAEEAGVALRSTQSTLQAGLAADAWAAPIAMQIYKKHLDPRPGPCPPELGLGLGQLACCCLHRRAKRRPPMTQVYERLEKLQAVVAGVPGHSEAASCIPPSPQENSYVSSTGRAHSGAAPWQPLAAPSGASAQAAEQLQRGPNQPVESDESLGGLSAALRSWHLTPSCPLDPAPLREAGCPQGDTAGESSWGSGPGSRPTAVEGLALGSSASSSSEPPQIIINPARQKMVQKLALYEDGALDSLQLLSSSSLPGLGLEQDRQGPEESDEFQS
UniProt Q99836: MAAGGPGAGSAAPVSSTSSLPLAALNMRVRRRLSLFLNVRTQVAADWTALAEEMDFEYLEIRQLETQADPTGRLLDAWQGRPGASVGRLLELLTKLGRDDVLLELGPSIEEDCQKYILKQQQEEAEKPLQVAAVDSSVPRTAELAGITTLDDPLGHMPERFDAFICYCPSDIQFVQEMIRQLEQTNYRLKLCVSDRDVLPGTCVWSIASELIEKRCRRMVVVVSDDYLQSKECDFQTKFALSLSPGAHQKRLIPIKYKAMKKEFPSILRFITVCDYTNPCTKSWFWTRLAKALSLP
UniProt P58753: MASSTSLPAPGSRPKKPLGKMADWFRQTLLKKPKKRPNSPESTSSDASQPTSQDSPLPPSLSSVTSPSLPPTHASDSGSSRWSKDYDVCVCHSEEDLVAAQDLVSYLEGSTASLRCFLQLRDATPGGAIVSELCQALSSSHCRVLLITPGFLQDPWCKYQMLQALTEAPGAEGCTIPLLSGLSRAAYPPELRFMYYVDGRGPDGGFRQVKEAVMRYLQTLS

Legend:
IRAK [1] = molecular target: IRAK (UniProt P51617); assay: co-immunoprecipitation from transfected HEK293 cells: anti-AU1 IP, anti-IRAK western blot
IRAK [2] = molecular target: IRAK (UniProt P51617); assay: co-immunoprecipitation from transfected HEK293 cells
[3] = molecular target: full length labelled MyD88 (AU-1-MyD88) (UniProt Q99836); assay: co-immunoprecipitation from transfected HEK293 cells: anti-AU1 IP, anti-HA immunoblot
myc-IRAK-2 = molecular target: T1, myc-IRAK-2 (UniProt O43187); assay: co-immunoprecipitation from transfected HEK293 cells: anti-HA IP, anti-myc immunoblot
T1 sequence (looked up): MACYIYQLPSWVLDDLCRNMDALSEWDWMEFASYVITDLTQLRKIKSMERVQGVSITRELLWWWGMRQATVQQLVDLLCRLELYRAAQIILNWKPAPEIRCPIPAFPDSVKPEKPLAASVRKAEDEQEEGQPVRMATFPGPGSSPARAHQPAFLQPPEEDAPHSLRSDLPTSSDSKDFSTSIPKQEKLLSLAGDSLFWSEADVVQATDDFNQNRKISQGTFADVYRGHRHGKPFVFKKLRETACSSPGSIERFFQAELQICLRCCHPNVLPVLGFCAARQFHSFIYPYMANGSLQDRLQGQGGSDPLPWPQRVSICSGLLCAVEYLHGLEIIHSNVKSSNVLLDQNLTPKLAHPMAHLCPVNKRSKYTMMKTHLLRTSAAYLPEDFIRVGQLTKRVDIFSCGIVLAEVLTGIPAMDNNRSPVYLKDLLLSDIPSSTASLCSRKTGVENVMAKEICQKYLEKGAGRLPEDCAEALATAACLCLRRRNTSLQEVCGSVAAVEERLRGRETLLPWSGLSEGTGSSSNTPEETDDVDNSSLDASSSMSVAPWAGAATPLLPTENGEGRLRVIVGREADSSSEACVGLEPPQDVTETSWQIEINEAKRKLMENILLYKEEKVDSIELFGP

binding (IRAK [1]) | binding (IRAK [2]) | binding [3] | binding (myc-IRAK-2) | Substance
binds | binds |  |  | full length labelled MyD88 (AU-1-MyD88) (from UniProt Q99836 1-296)
 |  | binds | binds | full-length labelled MAL-1 (HA-MAL-1) (from UniProt P58753 1-215)
